Data as given in PubChem BioAssay AID652259 (Drosophila RNAi Screening Center, 2013)
Assay: 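Knock-downs that push a Wingless-driven reporter up or down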 (primary screen). Cell system: Drosophila clone 8 imaginal disc epithelial cells. Reagent: long dsRNA against Drosophila genes. Challenge: pathway stimulated by co-transfected Wingless expression plasmid. Detection: 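Dual luciferase reads per well after Wingless plasmid stimulation: reporter firefly light and Renilla control light; activity is firefly divided by Renilla, a ratio not deposited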. Reading the numbers: firefly reporter light: higher = more Wg reporter light, before normalisation; Renilla control light: higher = more transfected or surviving cells. Hit rule: 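Strong candidates differ from their plate mean by at least two out of four per-plate statistical tests; weak candidates meet just one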. Meaning of the calls: active = candidate regulator (raises or lowers reporter); inactive = not a candidate.
In all, the deposit lists about 22,000 reagents; below is a random part of those with a known target gene and a result. Of all reagents, 233 (1.1%) were called active. 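Light values are raw, unnormalised plate reads; the ratio scores behind the reporter calls were not deposited.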 Entries without a mark were called inactive. A plus sign joins genes that one reagent is predicted to hit. Not given: the amount of reagent, the time to read-out, the dose of the treatment.

For CG17726 [SID104195047], the values are firefly reporter light, replicate 1 = 4202; Renilla control light, replicate 1 = 1577.
For CG11403 [SID104198324], the entry reads firefly reporter light, replicate 1 = 1603; firefly reporter light, replicate 2 = 6160; Renilla control light, replicate 1 = 731; Renilla control light, replicate 2 = 2152.
Depletion of cpb (capping protein beta) [SID104180601] gave: firefly reporter light, replicate 1 = 9762; Renilla control light, replicate 1 = 4963.
With knock-down of CG13653 [SID104194445], the screen gave firefly reporter light, replicate 1 = 15908; Renilla control light, replicate 1 = 14699.
Depletion of CG11131 [SID104191428] gave: firefly reporter light, replicate 1 = 23536; Renilla control light, replicate 1 = 7929.
Depletion of CG11131 [SID104201406] gave: firefly reporter light, replicate 1 = 3.45e5; firefly reporter light, replicate 2 = 3.88e5; Renilla control light, replicate 1 = 1.55e5; Renilla control light, replicate 2 = 1.33e5.
After knock-down of CG9525 [SID104183041] the results were firefly reporter light, replicate 1 = 3101; firefly reporter light, replicate 2 = 6491; Renilla control light, replicate 1 = 832; Renilla control light, replicate 2 = 3453.
After knock-down of mld (molting defective) [SID104193473], the screen gave firefly reporter light, replicate 1 = 2656; Renilla control light, replicate 1 = 1059.
For mld (molting defective) [SID104194414], the values are firefly reporter light, replicate 1 = 2515; firefly reporter light, replicate 2 = 6304; Renilla control light, replicate 1 = 1337; Renilla control light, replicate 2 = 1776.
With knock-down of asRNA:CR31084 (antisense RNA:CR31084) [SID104201339], the record shows firefly reporter light, replicate 1 = 6.55e5; firefly reporter light, replicate 2 = 6.49e5; Renilla control light, replicate 1 = 4.33e5; Renilla control light, replicate 2 = 3.38e5.
Knock-down of CG8569 [SID104187006] gave: firefly reporter light, replicate 1 = 6306; Renilla control light, replicate 1 = 1820.
With knock-down of CG4546 [SID104195385], the screen gave firefly reporter light, replicate 1 = 11293; Renilla control light, replicate 1 = 1413.
mthl12 (methuselah-like 12) [SID104192756] gave firefly reporter light, replicate 1 = 2772; Renilla control light, replicate 1 = 1429.
For CR30374 (pseudo) [SID104184872] the deposit lists firefly reporter light, replicate 1 = 19112; Renilla control light, replicate 1 = 10328.
Against betaNACtes1 (Nascent-associated complex beta-subunit-like, testis 1) [SID104199326] the deposit lists firefly reporter light, replicate 1 = 26690; Renilla control light, replicate 1 = 10965.
For CG5402 [SID104195584], the entry reads reporter change call, replicate 1 = Wg reporter activity lowered (active); firefly reporter light, replicate 1 = 2438; Renilla control light, replicate 1 = 2929.
Silencing of Ssdp (Sequence-specific single-stranded DNA-binding protein) [SID104196003] resulted in: firefly reporter light, replicate 1 = 6691; Renilla control light, replicate 1 = 1520.
With knock-down of Tsen34 + Trl [SID104189806], the screen gave firefly reporter light, replicate 1 = 7501; Renilla control light, replicate 1 = 2236.
CG10514 [SID104194041] scored firefly reporter light, replicate 1 = 29185; Renilla control light, replicate 1 = 18313.
RpL38 (Ribosomal protein L38) [SID104187610] showed firefly reporter light, replicate 1 = 7856; Renilla control light, replicate 1 = 2130.
For CG17343 [SID104182398], the values are firefly reporter light, replicate 1 = 3074; firefly reporter light, replicate 2 = 11497; Renilla control light, replicate 1 = 961; Renilla control light, replicate 2 = 3654.
Silencing of CG17343 [SID104202166] came out at: firefly reporter light, replicate 1 = 5.25e5; firefly reporter light, replicate 2 = 5.03e5; Renilla control light, replicate 1 = 1.14e5; Renilla control light, replicate 2 = 1.49e5.
After knock-down of CG7408 [SID104190633] the results were firefly reporter light, replicate 1 = 7861; Renilla control light, replicate 1 = 3427.
GluProRS (Glutamyl-prolyl-tRNA synthetase) [SID104193887] gave firefly reporter light, replicate 1 = 4203; firefly reporter light, replicate 2 = 6376; Renilla control light, replicate 1 = 1056; Renilla control light, replicate 2 = 1856.
After knock-down of nahoda [SID104183746], the record shows firefly reporter light, replicate 1 = 19987; Renilla control light, replicate 1 = 11318.
After knock-down of nahoda [SID104183918], the record shows firefly reporter light, replicate 1 = 13984; Renilla control light, replicate 1 = 4717.
CG30325 [SID104185477] gave firefly reporter light, replicate 1 = 22219; Renilla control light, replicate 1 = 16757.
With knock-down of Alp5 (Alkaline phosphatase 5) [SID104194061], the screen gave firefly reporter light, replicate 1 = 2986; firefly reporter light, replicate 2 = 6365; Renilla control light, replicate 1 = 1346; Renilla control light, replicate 2 = 2022.
eRF3 (eukaryotic translation release factor 3) [SID104183114] showed firefly reporter light, replicate 1 = 2145; firefly reporter light, replicate 2 = 4560; Renilla control light, replicate 1 = 1168; Renilla control light, replicate 2 = 3591.
For ort (ora transientless) [SID104196032], the values are firefly reporter light, replicate 1 = 15318; Renilla control light, replicate 1 = 3156.
Knock-down of Paics (PAICS bifunctional enzyme) [SID104200097] came out at: firefly reporter light, replicate 1 = 1688; firefly reporter light, replicate 2 = 4944; Renilla control light, replicate 1 = 745; Renilla control light, replicate 2 = 1304.
For Cp7Fc (Chorion protein c at 7F) [SID104197827], the entry reads firefly reporter light, replicate 1 = 20768; Renilla control light, replicate 1 = 8192.

3 entries already listed, arranged by “Renilla control light, replicate 1”, descending.
CG30325 [SID104185477] — firefly reporter light, replicate 1 = 22219; Renilla control light, replicate 1 = 16757
nahoda [SID104183746] — firefly reporter light, replicate 1 = 19987; Renilla control light, replicate 1 = 11318
nahoda [SID104183918] — firefly reporter light, replicate 1 = 13984; Renilla control light, replicate 1 = 4717
